# The RNAGym collection of RNA variant scans (doi:10.1126/science.aae0568)
# Variants at the background level are over-represented here.
# B1: tRNA (parent)
# chain: GUUCCGUUGGCGUAAUGGUAACGCGUCUCCCUCCUAAGGAGAAGACUGCGGGUUCGAGUCCCGUACGGAACG
# Variants of: B1
# Assay: yeast fitness relative to wild type (ratio to wild type); higher = fitter; tRNA-Arg(CCU), competitive growth, 37 C, YPD
# Method in brief: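 The tRNA-Arg(CCU) gene variants were made by chemical synthesis with a 3% per-site mutation rate at 69 sites and inserted at the native genomic locus of Saccharomyces cerevisiae. After pooling, the strains were competed in YPD at 37°C for 24 hours in six parallel replicates. Gene amplicons from the start population and each end population were read by 100-nucleotide paired-end sequencing, and Darwinian fitness relative to wild type was taken from genotype frequency changes. Genotypes needed ≥ 100 starting reads, and estimates < 0.5 were set to 0.5.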
row,Variant,yeast fitness
1,U3A A21C U26C A42C,≤ 0.5
2,G10C A42U A43U C62A A65U A69G,≤ 0.5
3,G18A C27U U53C,≤ 0.5
4,A21U C33U G38A A45U C62U,≤ 0.5
5,A20U A21U C31G C55A,≤ 0.5
6,C34U G50C A69U,≤ 0.5
7,C5A C34G A40U U47A G67C,≤ 0.5
8,A15G G18C A20G,≤ 0.5
9,G18A A21U U26C,≤ 0.5
10,C4U C11U G23C A43C C66G,≤ 0.5
11,C11G G48A C49G,0.587
12,U2A A57U G68C,≤ 0.5
13,C5U A15U G17C C66U,≤ 0.5
14,U2C A14G G25A A69C,≤ 0.5
15,G6C U8A C22U G58C,≤ 0.5
16,C5G U13C A43G C46U G50C,≤ 0.5
17,G10A C11G A20U C31U,≤ 0.5
18,C11U C30G C61U G68A,≤ 0.5
19,C33G G38A C61U G67A,≤ 0.5
20,C5G C29U A37G A65G,≤ 0.5
21,A15U C55G A70C,≤ 0.5

row,Variant,yeast fitness
1,C4A U28C,0.64
2,A14U A36C G50A,≤ 0.5
3,G12A U19G C22U C31U A40U G67A,≤ 0.5
4,U64C G68A,0.979
5,C33G U47G G56A A57G A69U,≤ 0.5
6,G6A G25C C33U G48A,≤ 0.5
7,C11G A14U G17A C27G C62A,≤ 0.5
8,G10C G12A C33A U47A C55A C61U,≤ 0.5
9,U7G C27U,0.792
10,C5U C27G C34G,≤ 0.5
11,A15U C30G C34U C66U A70C,0.511
12,U2A C4G C5G U54C,≤ 0.5
13,C24U C27U U53G C60A A70G,≤ 0.5
14,G6C C24U G38C A40G,≤ 0.5
15,C5G G9C G58C,≤ 0.5
16,U59A C66A,0.63
17,C4U G12A A42U C49U,≤ 0.5
18,U3A A43G C60U C62U A70C,≤ 0.5
19,U7G G12A G25A C33G A69C,≤ 0.5
20,C5G A14U C66A,≤ 0.5
21,U3A A14C C60A,≤ 0.5

row,Variant,yeast fitness
1,U3A C5A U8G G10A C46U A57C G68C A70U,≤ 0.5
2,A21U A45U G51A C55G A65C,≤ 0.5
3,C27G A45C C49U G52A U59C,0.6
4,A14U A57C C60G C61A,0.601
5,C11U U35A A43C,≤ 0.5
6,G9C C22G A42U U64A G67A,≤ 0.5
7,U3A C27U G67U,0.606
8,U8A C27U C31G C55G,≤ 0.5
9,C27U A36U G52C C61A,≤ 0.5
10,U7C C22U C27U A57U C61G,≤ 0.5
11,C11U A20U G38A C49U G51A U54A,≤ 0.5
12,C30G C31U U59A C60A G63C,≤ 0.5
13,U3G G9U G18A A20G A36G,≤ 0.5
14,C31G A57C A65C,≤ 0.5
15,U16A A37G C62U,0.543
16,U8C C24A U35G G52A U64A,≤ 0.5
17,A42U A65U A69C,≤ 0.5
18,U2A A14U C62U U64C,≤ 0.5
19,C22A G23C G48A G52A U53C C61A,≤ 0.5
20,U16C U35G G48C C66U,≤ 0.5
21,U8G A43C C60G A65C,≤ 0.5

row,Variant,yeast fitness
1,C11G C27U G67C,≤ 0.5
2,C24U U53A C66A,≤ 0.5
3,G12A C33G G38C A57U,≤ 0.5
4,U8G G18C C22U C29U C46A C55G U64A,≤ 0.5
5,U2A G23C C27U C31G A42C C61U,≤ 0.5
6,C4G U28A C29G G51A G56A G67C,≤ 0.5
7,G12C G17A C61U G68A,≤ 0.5
8,G25C U53A A57U A65U,≤ 0.5
9,A14C G38C G39C C61U,≤ 0.5
10,G12A C24G A40C A43C C46U G68C A69U,≤ 0.5
11,C4U C24A A36C A57U C60A,≤ 0.5
12,C5G U7A A20C U28C C60U A69U,≤ 0.5
13,U3C G51C,0.521
14,U8C A21U U32A C55G,0.517
15,C11U A15U C34A G39C A40C G56C C61G C62G G68C,≤ 0.5
16,A43G G58C,0.855
17,U19C C55A C66A,≤ 0.5
18,C22G C49A,0.682
19,U2C A36C C66G,≤ 0.5
20,A21U A45C G50C U64C,≤ 0.5
